Protein sequences, listed by entry. Tags and fused reporters are not part of them. Lines headed by an entry give the natural chain unless they say otherwise; changes in a name come on top.
UniProt Q9I193: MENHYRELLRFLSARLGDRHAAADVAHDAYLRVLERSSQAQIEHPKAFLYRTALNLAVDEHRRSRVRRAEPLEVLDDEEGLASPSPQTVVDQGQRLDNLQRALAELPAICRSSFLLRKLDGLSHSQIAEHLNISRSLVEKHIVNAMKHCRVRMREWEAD
UniProt G3XCV1: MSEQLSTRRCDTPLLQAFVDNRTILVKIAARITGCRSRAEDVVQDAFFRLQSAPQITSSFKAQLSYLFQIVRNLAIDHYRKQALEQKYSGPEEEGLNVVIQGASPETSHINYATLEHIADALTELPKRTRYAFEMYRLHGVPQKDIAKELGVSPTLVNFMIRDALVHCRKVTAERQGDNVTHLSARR

In paper PMC4256889:

Experiments:
[1] = target: His6-FpvI (P. aeruginosa PAO1) (UniProt Q9I193); test: pull-down; nickel-affinity chromatography of soluble protein from E. coli MC1061 (DE3) co-expressing His6-sigma factor and FpvR(1-89) from pETDuet; 50 mM sodium phosphate pH 8.0, 300 mM NaCl, wash 30 mM imidazole, elution 250 mM imidazole; SDS-PAGE and Western blot
[2] = target: His6-PvdS (P. aeruginosa PAO1) (UniProt G3XCV1); test: as above

FpvR_(1–89) (cytoplasmic region of FpvR) (from UniProt Q9I192) (domain or fragment)
binding [1]: binds | binding [2]: binds

These are yes or no findings as the source states them, for the method shown. In cells and extracts the contact can be indirect. A result given as binding can be weak or reduced; the word gives no strength.
